{
  "source": "paper PMC6921979",
  "binders": {"B1": {"name": "Serpin A12 (protein, UniProt Q8IW75 21-414)", "chain": "LKPSFSPRNYKALSEVQGWKQRMAAKELARQNMDLGFKLLKKLAFYNPGRNIFLSPLSISTAFSMLCLGAQDSTLDEIKQGFNFRKMPEKDLHEGFHYIIHELTQKTQDLKLSIGNTLFIDQRLQPQRKFLEDAKNFYSAETILTNFQNLEMAQKQINDFISQKTHGKINNLIENIDPGTVMLLANYIFFRARWKHEFDPNVTKEEDFFLEKNSSVKVPMMFRSGIYQVGYDDKLSCTILEIPYQKNITAIFILPDEGKLKHLEKGLQVDTFSRWKTLLSRRVVDVSVPRLHMTGTFDLKKTLSYIGVSKIFEEHGDLTKIAPHRSLKVGEAVHKAELKMDERGTEGAAGTGAQTLPMETPLVVKIDKPYLLLIYSEKIPSVLFLGKIVNPIGK"}, "B2": {"name": "Inter-alpha-trypsin inhibitor heavy chain H1 (protein, UniProt P19827 35-672)", "chain": "SKSSEKRQAVDTAVDGVFIRSLKVNCKVTSRFAHYVVTSQVVNTANEAREVAFDLEIPKTAFISDFAVTADGNAFIGDIKDKVTAWKQYRKAAISGENAGLVRASGRTMEQFTIHLTVNPQSKVTFQLTYEEVLKRNHMQYEIVIKVKPKQLVHHFEIDVDIFEPQGISKLDAQASFLPKELAAQTIKKSFSGKKGHVLFRPTVSQQQSCPTCSTSLLNGHFKVTYDVSRDKICDLLVANNHFAHFFAPQNLTNMNKNVVFVIDISGSMRGQKVKQTKEALLKILGDMQPGDYFDLVLFGTRVQSWKGSLVQASEANLQAAQDFVRGFSLDEATNLNGGLLRGIEILNQVQESLPELSNHASILIMLTDGDPTEGVTDRSQILKNVRNAIRGRFPLYNLGFGHNVDFNFLEVMSMENNGRAQRIYEDHDATQQLQGFYSQVAKPLLVDVDLQYPQDAVLALTQNHHKQYYEGSEIVVAGRIADNKQSSFKADVQAHGEGQEFSITCLVDEEEMKKLLRERGHMLENHVERLWAYLTIQELLAKRMKVDREERANLSSQALQMSLDYGFVTPLTSMSIRGMADQDGLKPTIDKPSEDSPPLEMLGPRRTFVLSALQPSPTHSSSNTQRLPDRVTGVDTD"}, "B3": {"name": "Histidine-rich glycoprotein (protein, UniProt P04196 19-525)", "chain": "VSPTDCSAVEPEAEKALDLINKRRRDGYLFQLLRIADAHLDRVENTTVYYLVLDVQESDCSVLSRKYWNDCEPPDSRRPSEIVIGQCKVIATRHSHESQDLRVIDFNCTTSSVSSALANTKDSPVLIDFFEDTERYRKQANKALEKYKEENDDFASFRVDRIERVARVRGGEGTGYFVDFSVRNCPRHHFPRHPNVFGFCRADLFYDVEALDLESPKNLVINCEVFDPQEHENINGVPPHLGHPFHWGGHERSSTTKPPFKPHGSRDHHHPHKPHEHGPPPPPDERDHSHGPPLPQGPPPLLPMSCSSCQHATFGTNGAQRHSHNNNSSDLHPHKHHSHEQHPHGHHPHAHHPHEHDTHRQHPHGHHPHGHHPHGHHPHGHHPHGHHPHCHDFQDYGPCDPPPHNQGHCCHGHGPPPGHLRRRGPGKGPRPFHCRQIGSVYRLPPLRKGEVLPLPEANFPSFPLPHHKHPLKPDNQPFPQSVSESCPGKFKSGFPQVSMFFTHTFPK"}},
  "note": "No constants are given. Whether binding was seen depends on the method and setting. In cells and extracts the contact can be indirect. These calls come from enrichment with a bait or labelling near it, and not all partners need be listed. Where a sequence is shown, tags or fusion partners need not be part of it.",
  "data": [
    {"molecular_target": "Complement factor C3a/C3 (human (endogenous in serum))", "test": "affinity purification with mass spectrometry; precleared human serum recirculated at 4 °C over 3F7E2-mAb coupled to cyanogen bromide Sepharose; washes with Triton X-100, sodium deoxycholate and 0.5 M NaCl at pH 8.0 and 9.0; elution with 50 mM TEA pH 11.3; reducing SDS-PAGE, whole lane to nanoLC-MS; haptoglobin column (3A8-mAb) as control; hits: >10-fold enriched, p < 0.05, three technical replicates", "values": [
      {"binder": "B1", "binding": "binds"},
      {"binder": "B2", "binding": "binds"},
      {"binder": "B3", "binding": "binds"}
    ]}
  ]
}
